PubChem BioAssay AID652243, Drosophila RNAi Screening Center, 2013
The deposit covers about 24,000 reagents; this is a random part of those with a known target gene and a result. Of all reagents, 246 (1%) were called active. 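Plates not normalised; calls are printed but the firefly/Renilla ratio behind them is not deposited; fold cut for lowering reported inconsistently.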 Raw values vary from plate to plate and are shown uncorrected. Names joined by + are all predicted targets of the reagent. The record does not give: the amount of reagent.

Test: 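Knock-downs that decrease or increase androgen receptor reporter signal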 (primary screen)
System: Drosophila S2R+ cells
Reagent: long dsRNA against Drosophila genes
Duration: 72 h (48 h, then 24 h hormone)
Treatment: synthetic androgen R1881 at 10 nM for 24 h
Detection: 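Firefly light from an androgen-responsive reporter and Renilla control light per well, raw and unnormalised, for each of two replicates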
Direction: firefly reporter light: higher = more light from androgen-responsive reporter; Renilla control light: higher = more constitutive control signal (cell number, transfection)
Call rule: 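Hit when the log firefly-to-Renilla ratio dropped or increased by a fixed fold versus the mean of GFP or LacZ controls across duplicate plates; lowering cut given as 1.5 and as 3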
Meaning of the calls: active = hit: reporter lowered or raised; inactive = no hit

| Gene | amplicon | firefly reporter light, replicate 1 | firefly reporter light, replicate 2 | Renilla control light, replicate 1 | Renilla control light, replicate 2 | Outcome |
| --- | --- | --- | --- | --- | --- | --- |
| if | DRSC20341 | 5.17e5 | 3.47e5 | 2.87e6 | 1.67e6 | inactive |
| mRpL36 | DRSC10337 | 2.26e5 | 1.31e5 | 2.80e6 | 1.45e6 | inactive |
| PK2-R1 | DRSC16447 | 6760 | 31319 | 2.39e5 | 2.98e5 | inactive |
| PK2-R1 | DRSC24363 | 1.08e6 | 1.35e6 | 1.21e6 | 1.33e6 | inactive |
| Tep2 | DRSC02679 | 2.11e5 | 1.89e5 | 1.53e6 | 1.23e6 | inactive |
| Tep2 | DRSC03451 | 2.41e5 | 1.98e5 | 2.00e6 | 1.45e6 | inactive |
| Stip1 | DRSC00756 | 7.63e5 | 4.45e5 | 2.25e6 | 1.25e6 | inactive |
| CG13004 | DRSC19523 | 3.62e5 | 3.29e5 | 2.75e6 | 2.55e6 | inactive |
| CG1894 | DRSC15396 | 1.73e5 | 1.58e5 | 2.15e6 | 2.70e6 | inactive |
| Skp2 + CG1103 | DRSC12160 | 69152 | 85825 | 7.08e5 | 7.99e5 | inactive |
| Skp2 + CG1103 | DRSC22356 | 4.27e5 | 4.40e5 | 1.10e6 | 1.02e6 | inactive |
| bma | DRSC09896 | 3.21e5 | 2.65e5 | 1.86e6 | 1.36e6 | inactive |
| bma | DRSC10164 | 2.48e5 | 2.09e5 | 2.74e6 | 1.76e6 | inactive |
| bma | DRSC28408 | 2.44e5 | 5.32e5 | 8.32e5 | 1.49e6 | inactive |
| bma | DRSC37064 | – | – | – | – | inactive |
| CG9896 | DRSC03962 | 1.88e5 | 1.76e5 | 2.91e5 | 4.15e5 | inactive |
| CG9896 | DRSC04594 | 2.97e5 | 2.54e5 | 2.24e6 | 2.69e6 | inactive |
| PGAP5 | DRSC03089 | 1.97e5 | 2.42e5 | 1.97e6 | 1.79e6 | inactive |
| PGAP5 | DRSC27504 | 2.12e5 | 2.24e5 | 7.41e5 | 7.00e5 | inactive |
| Bap111 | DRSC18419 | 5.42e5 | 4.19e5 | 2.61e6 | 1.77e6 | inactive |
| Bap111 | DRSC28822 | 9.64e5 | 8.30e5 | 9.11e5 | 8.79e5 | inactive |
| nbs | DRSC11373 | 2.26e5 | 2.41e5 | 2.23e6 | 2.48e6 | inactive |
| nbs | DRSC23793 | 4.13e5 | 3.44e5 | 4.71e5 | 4.22e5 | inactive |
| CG30114 | DRSC05707 | 59968 | 76006 | 2.83e5 | 96599 | inactive |
| CG30114 | DRSC25433 | 8.64e5 | 1.13e6 | 7.82e5 | 9.47e5 | inactive |
| side-VII | DRSC14578 | 1.06e5 | 1.51e5 | 8.39e5 | 1.20e6 | inactive |
| CG15425 | DRSC00440 | 1.24e5 | 1.23e5 | 7.90e5 | 9.64e5 | inactive |
| CG15425 | DRSC24897 | 8.48e5 | 9.09e5 | 1.19e6 | 1.17e6 | inactive |
| CG11269 | DRSC04094 | 2.52e5 | 2.46e5 | 1.93e6 | 1.71e6 | inactive |
| Sting | DRSC06615 | 3.21e5 | 1.89e5 | 2.15e6 | 1.29e6 | inactive |
| Sting | DRSC29477 | 3.15e5 | 5.14e5 | 6.78e5 | 6.78e5 | inactive |
| ph-p | DRSC18820 | 3.26e5 | 3.67e5 | 2.75e6 | 3.17e6 | inactive |
| OdsH | DRSC20263 | 5.46e5 | 4.40e5 | 3.56e6 | 3.11e6 | inactive |
| osk | DRSC17023 | 31513 | 24143 | 4.31e5 | 3.40e5 | inactive |
| Cpr65Eb | DRSC11026 | 1.69e5 | 1.95e5 | 1.76e6 | 2.36e6 | inactive |
| Cpr65Eb | DRSC23758 | 9.63e5 | 1.04e6 | 1.15e6 | 1.20e6 | inactive |
| lncRNA:iab8 | DRSC22252 | 8.64e5 | 1.03e6 | 2.86e5 | 3.00e5 | inactive |
| lncRNA:iab8 | DRSC28445 | 3.18e5 | 4.98e5 | 8.44e5 | 1.94e6 | inactive |
| Obp56d | DRSC06064 | 71836 | 96195 | 7.90e5 | 1.20e6 | inactive |
| Men | DRSC12924 | 4.36e5 | 4.18e5 | 9.81e5 | 1.08e6 | inactive |
| Men | DRSC16738 | 3.71e5 | 4.02e5 | 2.41e6 | 2.10e6 | inactive |
| Men | DRSC22694 | 9.55e5 | 8.00e5 | 2.12e6 | 2.37e6 | inactive |
| Men | DRSC39137 | 6.05e5 | 7.28e5 | 1.62e6 | 1.28e6 | inactive |

Individual results from above.
For “firefly reporter light, replicate 1”, osk [DRSC17023] reads 31513
ph-p [DRSC18820], Outcome: inactive
Entry for PGAP5 [DRSC27504] under “firefly reporter light, replicate 2”: 2.24e5
bma [DRSC37064], Outcome = inactive
Value of lncRNA:iab8 [DRSC28445] in “Outcome”: inactive
CG13004 [DRSC19523], firefly reporter light, replicate 1: 3.62e5
